Data from article doi:10.1101/2025.06.04.657812.
These are yes or no findings as the source states them, for the method shown. In cells and extracts the contact can be indirect. Some results given as binding are weak or reduced against the parent protein; the word gives no strength.

Amino acid sequences for entries named in this document (tags omitted).
UniProt O00716: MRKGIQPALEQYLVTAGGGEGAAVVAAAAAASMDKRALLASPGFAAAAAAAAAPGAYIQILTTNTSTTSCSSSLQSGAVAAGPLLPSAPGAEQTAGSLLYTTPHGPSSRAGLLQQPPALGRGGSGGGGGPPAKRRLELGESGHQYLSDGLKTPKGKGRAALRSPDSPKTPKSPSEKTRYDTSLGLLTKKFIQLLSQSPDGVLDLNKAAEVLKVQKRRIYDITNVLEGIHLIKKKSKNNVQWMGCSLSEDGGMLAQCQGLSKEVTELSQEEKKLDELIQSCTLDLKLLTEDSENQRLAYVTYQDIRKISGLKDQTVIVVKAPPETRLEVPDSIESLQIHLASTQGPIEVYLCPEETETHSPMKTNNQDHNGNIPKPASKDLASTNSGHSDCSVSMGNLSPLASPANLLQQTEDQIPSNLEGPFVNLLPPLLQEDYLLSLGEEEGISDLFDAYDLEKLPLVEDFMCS
UniProt Q9BXW9: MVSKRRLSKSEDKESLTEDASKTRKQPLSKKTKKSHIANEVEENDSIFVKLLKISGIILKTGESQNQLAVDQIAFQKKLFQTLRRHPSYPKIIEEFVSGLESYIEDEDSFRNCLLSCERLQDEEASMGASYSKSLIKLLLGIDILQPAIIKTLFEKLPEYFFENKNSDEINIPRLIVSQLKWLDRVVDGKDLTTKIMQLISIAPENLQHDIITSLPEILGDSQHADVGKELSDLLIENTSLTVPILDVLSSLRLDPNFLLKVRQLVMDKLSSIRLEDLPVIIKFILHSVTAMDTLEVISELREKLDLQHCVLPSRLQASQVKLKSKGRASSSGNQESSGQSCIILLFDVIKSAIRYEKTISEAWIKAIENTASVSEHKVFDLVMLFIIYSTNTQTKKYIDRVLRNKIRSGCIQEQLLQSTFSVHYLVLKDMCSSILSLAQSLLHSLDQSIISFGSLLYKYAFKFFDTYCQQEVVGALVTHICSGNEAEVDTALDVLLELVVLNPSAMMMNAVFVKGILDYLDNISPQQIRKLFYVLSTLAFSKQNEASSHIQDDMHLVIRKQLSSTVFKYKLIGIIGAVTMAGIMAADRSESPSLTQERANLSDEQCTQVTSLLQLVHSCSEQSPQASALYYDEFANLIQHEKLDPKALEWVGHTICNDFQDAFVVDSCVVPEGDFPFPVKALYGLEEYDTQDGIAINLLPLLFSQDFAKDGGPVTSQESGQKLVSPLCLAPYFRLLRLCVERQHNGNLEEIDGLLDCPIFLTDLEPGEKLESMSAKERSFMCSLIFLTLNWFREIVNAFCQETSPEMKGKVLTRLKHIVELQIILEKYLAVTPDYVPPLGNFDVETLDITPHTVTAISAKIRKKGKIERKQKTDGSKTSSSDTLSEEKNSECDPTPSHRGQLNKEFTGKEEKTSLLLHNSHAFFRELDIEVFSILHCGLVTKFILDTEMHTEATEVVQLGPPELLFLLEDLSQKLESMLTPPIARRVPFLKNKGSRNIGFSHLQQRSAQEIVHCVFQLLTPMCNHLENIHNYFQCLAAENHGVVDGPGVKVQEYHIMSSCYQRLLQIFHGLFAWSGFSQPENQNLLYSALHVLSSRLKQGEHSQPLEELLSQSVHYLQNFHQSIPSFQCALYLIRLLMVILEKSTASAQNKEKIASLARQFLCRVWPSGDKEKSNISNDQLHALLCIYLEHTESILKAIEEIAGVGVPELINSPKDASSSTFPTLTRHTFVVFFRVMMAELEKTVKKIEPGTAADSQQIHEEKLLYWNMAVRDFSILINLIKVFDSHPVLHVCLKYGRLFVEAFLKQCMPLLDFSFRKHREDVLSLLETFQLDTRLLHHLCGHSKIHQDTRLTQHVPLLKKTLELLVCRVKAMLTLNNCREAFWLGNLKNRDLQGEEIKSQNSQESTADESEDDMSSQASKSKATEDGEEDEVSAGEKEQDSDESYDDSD
UniProt P01106: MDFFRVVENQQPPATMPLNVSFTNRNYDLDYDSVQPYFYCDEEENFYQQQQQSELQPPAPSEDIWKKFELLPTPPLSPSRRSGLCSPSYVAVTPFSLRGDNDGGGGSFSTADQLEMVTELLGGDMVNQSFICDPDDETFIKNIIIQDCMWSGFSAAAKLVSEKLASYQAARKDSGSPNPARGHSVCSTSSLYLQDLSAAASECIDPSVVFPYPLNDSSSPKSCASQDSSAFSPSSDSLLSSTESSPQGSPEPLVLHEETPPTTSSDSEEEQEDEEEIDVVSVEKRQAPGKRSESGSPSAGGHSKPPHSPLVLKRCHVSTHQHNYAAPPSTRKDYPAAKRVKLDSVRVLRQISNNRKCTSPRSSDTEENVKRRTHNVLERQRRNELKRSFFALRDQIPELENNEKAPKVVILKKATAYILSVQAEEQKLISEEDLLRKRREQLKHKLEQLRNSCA
UniProt P15927: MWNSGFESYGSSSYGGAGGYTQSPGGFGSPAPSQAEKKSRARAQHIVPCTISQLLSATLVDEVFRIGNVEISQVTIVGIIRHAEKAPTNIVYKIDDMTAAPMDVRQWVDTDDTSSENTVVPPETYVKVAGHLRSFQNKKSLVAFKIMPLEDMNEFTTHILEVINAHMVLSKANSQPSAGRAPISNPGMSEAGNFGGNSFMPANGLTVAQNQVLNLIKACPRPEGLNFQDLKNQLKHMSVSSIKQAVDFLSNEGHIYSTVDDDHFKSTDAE

Experiments:
[1] = biological target: T1, Lymphoid Specific Helicase (LSH) (human (endogenous in PC3)) (UniProt Q9NRZ9); test: co-IP
T1 sequence: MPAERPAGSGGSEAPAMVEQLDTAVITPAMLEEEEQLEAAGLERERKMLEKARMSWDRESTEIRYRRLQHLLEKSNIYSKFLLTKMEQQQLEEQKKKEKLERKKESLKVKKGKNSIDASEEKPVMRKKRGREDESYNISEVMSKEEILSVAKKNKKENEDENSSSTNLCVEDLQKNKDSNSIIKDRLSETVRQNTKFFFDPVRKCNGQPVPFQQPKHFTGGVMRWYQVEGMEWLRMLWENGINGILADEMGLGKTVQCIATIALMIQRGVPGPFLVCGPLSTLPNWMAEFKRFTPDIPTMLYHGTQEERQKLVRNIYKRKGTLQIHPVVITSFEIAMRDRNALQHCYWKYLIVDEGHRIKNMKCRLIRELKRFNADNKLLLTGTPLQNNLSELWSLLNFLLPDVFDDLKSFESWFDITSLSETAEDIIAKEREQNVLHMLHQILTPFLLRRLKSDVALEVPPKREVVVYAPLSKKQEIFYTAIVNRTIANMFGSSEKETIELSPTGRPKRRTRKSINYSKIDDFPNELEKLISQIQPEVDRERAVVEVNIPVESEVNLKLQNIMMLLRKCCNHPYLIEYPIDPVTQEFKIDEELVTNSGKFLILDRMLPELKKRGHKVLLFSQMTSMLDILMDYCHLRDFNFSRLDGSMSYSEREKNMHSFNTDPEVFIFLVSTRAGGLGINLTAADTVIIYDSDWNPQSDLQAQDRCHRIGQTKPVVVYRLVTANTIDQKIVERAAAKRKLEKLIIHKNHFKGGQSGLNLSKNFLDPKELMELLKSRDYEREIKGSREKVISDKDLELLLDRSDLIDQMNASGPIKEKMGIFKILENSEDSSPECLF

[2] = biological target: T1, Lymphoid Specific Helicase (LSH) (human (endogenous in PC3)); test: proximity ligation

Row | Substance | binding [1] | binding [2]
1 | E2F3 (from UniProt O00716 1-465) | binds | 
2 | FANCD2 (from UniProt Q9BXW9 1-1451) |  | binds
3 | MYC (from UniProt P01106 1-454) | binds | 
4 | RPA phosphorylated at Ser4/8 (RPA32-S4/8P) (from UniProt P15927 1-270) |  | binds
